# Laboratory results published in patent US20240216395A1, “19-NOR C3,3-DISUBSTITUTED C21 -N-PYRAZOLYL STEROID FOR USE IN TREATING MAJOR DEPRESSIVE DISORDER AND POSTPARTUM DEPRESSION” (priority 2021, published 2024).
# Some of these results come from one statement about several compounds together.
# System: nondependent, recreational users of CNS depressants
# Test: Abuse potential main study, treatment phase: subjective VAS measures (Drug Liking, Overall Drug Liking, Take Drug Again, High, Good/Bad/Any Drug Effects, Alertness/Drowsiness, Drug Similarity)
row,SMILES,Any Drug Effect VAS: time of peak effects
1,"Cc1nnc2n1-c1ccc(Cl)cc1C(c1ccccc1)=NC2 [Alprazolam, alprazolam, reference compound]",4-5 hours postdose
2,"C[C@@]1(O)CC[C@H]2[C@H](CC[C@@H]3[C@@H]2CC[C@]2(C)[C@@H](C(=O)Cn4cc(C#N)cn4)CC[C@@H]32)C1 [Compound (1), 1-(2-((3R,5R,8R,9R,10S,13S,14S,17S)-3-hydroxy-3,13-dimethylhexadecahydro-1H-cyclopenta[a]phenanthren-17-yl)-2-oxoethyl)-1H-pyrazole-4-carbonitrile]",4-5 hours postdose
